Experimental data: publication PMC10893700
Changes are numbered by the printed parent chain. No constants are given. Whether binding was seen depends on the method and setting. In cells and extracts the contact can be indirect. Some entries that bind do so weakly or less than the wild type. Tags and fused reporters may be left off the sequences shown.

Amino acid sequences for entries named in this document (tags omitted). Residues count along the entry.
UniProt Q07021, residues 74-282: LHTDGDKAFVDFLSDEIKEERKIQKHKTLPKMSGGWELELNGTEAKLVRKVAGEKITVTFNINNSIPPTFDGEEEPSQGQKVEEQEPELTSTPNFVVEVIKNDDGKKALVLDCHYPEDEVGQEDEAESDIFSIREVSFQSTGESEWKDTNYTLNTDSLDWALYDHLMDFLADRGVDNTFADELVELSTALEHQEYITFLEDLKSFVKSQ

Assays:
Test in all cases: co-IP; lysate of about 3 x 10^6 Hela cells stably expressing hCHCHD2-MYC, RIPA lysis buffer with protease inhibitor, EZview Red Anti-c-Myc Affinity Gel, 2 h at 4 °C; Western blot for p32; n = 3
[1] = biological target: T1, hCHCHD2-Arg145Gln-MYC (Hela cells) (human) (UniProt Q9Y6H1)
T1 sequence: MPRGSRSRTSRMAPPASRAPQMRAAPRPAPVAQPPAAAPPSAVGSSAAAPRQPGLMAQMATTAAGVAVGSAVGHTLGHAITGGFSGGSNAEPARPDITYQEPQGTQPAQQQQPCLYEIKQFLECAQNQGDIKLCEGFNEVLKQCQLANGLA

[2] = biological target: T2, hCHCHD2-Thr61Ile-MYC (Hela cells) (human) (UniProt Q9Y6H1)
T2 sequence: T1 sequence with T61I, Q145R

[3] = biological target: T3, wild type hCHCHD2-MYC (Hela cells) (human) (UniProt Q9Y6H1)
T3 sequence: T1 sequence with Q145R

binding [1]: binds
binding [2]: binds
binding [3]: binds
Substance: p32 (Hela cells) (from UniProt Q07021 74-282)
